# The supplement of paper PMC7830784
# Structures can show the parent of a compound that is named as a salt. The list shows a part of the results. Most values lie within the scatter of the assay; repeated measurements hardly agree. Residues, ends and D or L forms follow the SMILES beside them.
# System: Brugia pahangi adult female
# Test: motility inhibition on day 3 relative to DMSO vehicle; higher = more active
# Settings: 10 µM; 3 days
row,Compound,motility inhibition on day 3 [%]
1,CCCCNC(=O)NS(=O)(=O)c1ccc(C)cc1 [Tolbutamide],12.7
2,O=C(O)c1cc(-c2ccc(F)cc2F)ccc1O [diflunisal],< 0
3,CCCCCCCN(CC)CCCC(O)c1ccc(NS(C)(=O)=O)cc1 (configuration not stated) [Ibutilide Fumarate],< 0
4,COc1ccc(-c2cc(=O)c3c(O)cc(O[C@@H]4O[C@H](CO[C@@H]5O[C@@H](C)[C@H](O)[C@@H](O)[C@H]5O)[C@@H](O)[C@H](O)[C@H]4O)cc3o2)cc1O [diosmin],8.35
5,NC(=O)NC(=O)Cc1ccccc1 [phenacemide],25.7
6,COc1ccc(C(=O)c2ccc(C)cc2)c(O)c1 [mexeneone],5.23
7,CC1(C)[C@H]2CC[C@]1(CS(=O)(=O)O)C(=O)C2=Cc1ccc(C=C2C(=O)[C@@]3(CS(=O)(=O)O)CC[C@@H]2C3(C)C)cc1 [ecamsule triethanolamine],15.9
8,OC[C@@H](O)[C@@H](O[C@@H]1O[C@H](CO)[C@H](O)[C@H](O)[C@H]1O)[C@H](O)[C@@H](O)CO [lacitol],42.3
9,OC[C@@H](O)[C@@H](O[C@@H]1O[C@H](CO)[C@H](O)[C@H](O)[C@H]1O)[C@H](O)[C@@H](O)CO [d-lactitol monohydrate],< 0
10,c1ccc2[nH]c(-c3cscn3)nc2c1 [thiabendazole],< 0
11,CN1[C@@H](CC(=O)c2ccccc2)CCC[C@H]1C[C@H](O)c1ccccc1 [lobeline hydrochloride],2.36
12,CN(C)[C@@H]1C(O)=C(C(N)=O)C(=O)[C@@]2(O)C(O)=C3C(=O)c4c(O)ccc(Cl)c4[C@@](C)(O)[C@H]3C[C@@H]12 [chlortetracycline],1.14
13,O=C1OC2(c3ccc(O)cc3Oc3cc(O)ccc32)c2ccccc21 [fluorescein],< 0
14,CC(=O)OCC1=C(C(=O)O)N2C(=O)[C@@H](NC(=O)CSc3ccncc3)[C@H]2SC1 [cephapirin sodium],6.04
15,C[C@]12CC[C@@H]3c4ccc(O)cc4CC[C@H]3[C@@H]1CCC2=O [estrone],24.2
16,CC(C)[C@H](NC(=O)[C@H](CC(=O)O)NC(=O)[C@H](CCCCN)NC(=O)[C@@H](N)CCCN=C(N)N)C(=O)N[C@@H](Cc1ccc(O)cc1)C(=O)O [thymopentin] (H-RKDVY-OH),< 0
17,CCOC(=O)C1=C[C@]2(CC)CCCN3CCc4c(n1c1ccccc41)[C@@H]32 [vinpocetine],11
18,COc1ccccc1O [guaiacol],1.69
19,O=NN(CCCl)C(=O)NC1CCCCC1 [lomustine],30.3
20,O=C(O)CCC(=O)Nc1ccc(S(=O)(=O)Nc2nccs2)cc1 [succinylsulfathiazole],42.9
21,COc1cnc(NS(=O)(=O)c2ccc(N)cc2)nc1 [sulfameter],10
22,Cc1cccc(CN2CCN(C(c3ccccc3)c3ccc(Cl)cc3)CC2)c1 (configuration not stated) [meclizine hydrochloride],21.4
23,CC(C)COC(=O)c1ccc(N)cc1 [isobutamben],8.61
24,Cc1cc(-n2c(=O)[nH]c(=O)n(C)c2=O)ccc1Oc1ccc(SC(F)(F)F)cc1 [toltrazuril],4.45

# Rewritten as tab-separated lines: entries from further up.
row	Compound	motility inhibition on day 3 [%]
15	C[C@]12CC[C@@H]3c4ccc(O)cc4CC[C@H]3[C@@H]1CCC2=O [estrone]	24.2
16	CC(C)[C@H](NC(=O)[C@H](CC(=O)O)NC(=O)[C@H](CCCCN)NC(=O)[C@@H](N)CCCN=C(N)N)C(=O)N[C@@H](Cc1ccc(O)cc1)C(=O)O [thymopentin] (H-RKDVY-OH)	< 0

# Following part:

row,Compound,motility inhibition on day 3 [%]
1,Cc1ccccc1N1C(=O)c2cc(S(N)(=O)=O)c(Cl)cc2NC1C (configuration not stated) [metolazone],6.8
2,OCCOCCN1CCN(C(c2ccccc2)c2ccc(Cl)cc2)CC1 (configuration not stated) [hydroxyzine pamoate],42.8
3,O=S(=O)(O)CCCS(=O)(=O)O [eprodisate disodium],< 0
4,CC(=O)Nc1ccc(O)cc1 [acetaminophen],1.69
5,CC(=O)Oc1c(C)c(C)c2c(c1C)CCC(C)(CCCC(C)CCCC(C)CCCC(C)C)O2 (stereo not drawn) [alpha-tochopheryl acetate],5.83
6,NCCCC(N)C(=O)O (configuration not stated) [ornithine aketoglutarate],< 0
7,CCCCC(CC)CN=C(N)N=C(N)NCCCCCCNC(N)=NC(N)=NCC(CC)CCCC (configuration not stated) [alexidine hydrochloride],92.8
8,COc1ccc2[nH]c([S+]([O-])Cc3ncc(C)c(OC)c3C)nc2c1 (configuration not stated) [omeprazole],10.2
9,C[C@]12CC[C@@H]3c4ccc(O)cc4CC[C@H]3[C@@H]1C[C@H](O)[C@@H]2O [epiestriol],< 0
10,Cn1nnnc1SCC1=C(C(=O)O)N2C(=O)[C@@H](NC(=O)[C@H](OC=O)c3ccccc3)[C@H]2SC1 [cefamandole nafate],19.9
11,CO/N=C(\C(=O)N[C@@H]1C(=O)N2C(C(=O)O)=C(C[N+]3(C)CCCC3)CS[C@H]12)c1csc(N)n1 [cefepime hydrochloride],< 0
12,CCOC(=O)[C@H](CCc1ccccc1)N[C@@H](C)C(=O)N1CCC[C@H]1C(=O)O [enalapril maleate],6.87
13,CCc1cccc2c3c([nH]c12)C(CC)(CC(=O)O)OCC3 (configuration not stated) [etodolac],5.82
14,Cc1noc(NS(=O)(=O)c2ccc(N)cc2)c1C [sulfisoxazole],< 0
15,CCCCC(=O)O[C@]1(C(=O)CO)CC[C@H]2[C@@H]3CCC4=CC(=O)CC[C@]4(C)[C@H]3[C@@H](O)C[C@@]21C [hydrocortisone valerate],53.3
16,C[C@]12CC[C@@H]3c4ccc(O)cc4CC[C@H]3[C@@H]1C[C@@H](O)[C@@H]2O [estriol],42.8
17,CC(Oc1c(Cl)cccc1Cl)C1=NCCN1 (configuration not stated) [lofexidine  hydrochloride],0.193
18,CC1=C(CC(=O)O)c2cc(F)ccc2/C1=C\c1ccc([S+](C)[O-])cc1 (configuration not stated) [Sulindac],< 0
19,Cn1c([N+](=O)[O-])cnc1COC(N)=O [ronidazole],4.78
20,NC(N)=O [urea],13.8
21,CN(C)[C@@H]1C(O)=C(C(N)=O)C(=O)[C@@]2(O)C(O)=C3C(=O)c4c(O)ccc(Cl)c4[C@@H](O)[C@H]3C[C@@H]12 [demeclocycline hydrochloride],15.3
22,"NC(C(=O)O)C(O)c1ccc(O)c(O)c1 (racemic) [H-DL-beta-(3,4-Dihydroxyphenyl)-DL-Ser-OH]",< 0
23,OC[C@H]1O[C@@H](O[C@@H]2[C@@H](CO)OC(O)(CO)[C@H]2O)[C@H](O)[C@@H](O)[C@H]1O (mixture of isomers) [lactulose],48.9
